PubChem BioAssay AID1345085 (National Center for Advancing Translational Sciences (NCATS), 2018)
The shares of active, inactive and inconclusive entries below differ from those in the screen. Potencies beside an inconclusive call are fits to weak or partial responses and may not hold up. Activity calls are given as the source filed them. Calls come from the whole dose curve; as a rule, active = well fitted cell-killing curve with a large enough effect; inconclusive = small, poorly fitted or top-dose-only effect, or effect the other way; inactive = no such curve, though single readings can be large or run the other way.

tested on: Tov-21-G; test: Confirmatory qHTS for gynecologic anti-cancer compounds from libraries of approved drugs and bioactive compounds; conditions: gynecologic cancer cell panel viability, ATPlite luminescence, 48 h; series mostly up to 57.7 µM; note: nearly all actives have a fitted effect of over 55% in size
How it was run: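 IC50 values derive from an ATPlite ATP-content luminescence assay following 48 h treatment at 37 C. Each compound ran as an 11-concentration, threefold series (57.5 uM to 0.977 nM); HEK 293T served as control line for selectivity index.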
Potency is the fitted concentration of half-maximal effect.

Question: With Nc1ccccc1NC(=O)c1ccc(CNC(=O)OCc2cccnc2)cc1 as the compound, how does the Potency read?
Answer: active: 7.69 µM

Question: Which Potency does the source give for Cc1ccc(C(=O)Nc2ccc(Oc3cc4cnn(C)c4cc3-c3cn[nH]c3)c(F)c2)c(=O)n1-c1ccc(F)cc1 here?
Answer: inconclusive: 10.9 µM [cytotoxic, partial curve, poor fit]

Question: Which Potency does the source give for Cc1c(C)n(Cc2ccc(-c3ccccc3C(=O)O)cc2)c2ccc(C(=O)N[C@@H](C)c3ccc([N+](=O)[O-])cc3)cc12 here?
Answer: inconclusive: 0.0017 µM [rising, full curve, poor fit]

Question: How did the Potency turn out when CCS(=O)(=O)N1CCN(c2ccc(Nc3ncc(C(N)=O)c(NC4CC4)n3)cc2)CC1 was run?
Answer: inconclusive: 24.3 µM [cytotoxic, partial curve]

Question: With COc1cc(N2CCC(N3CCN(C)CC3)CC2)ccc1Nc1ncnc(Nc2ccccc2S(=O)(=O)C(C)C)n1 as the compound, how does the Potency read?
Answer: inconclusive: 4.85 µM [cytotoxic, full curve, poor fit]

Question: With CN(C)c1ccc(-c2nc3ncc(Cl)c(N4CCN(CC(=O)Nc5nccs5)CC4)c3[nH]2)cc1 as the compound, how does the Potency read?
Answer: inconclusive: 6.68 µM [cytotoxic, full curve, poor fit]
